According to PubChem BioAssay AID624297 (National Center for Advancing Translational Sciences (NCATS), 2012):
Where “and” joins values, the source holds several entries; their conditions need not be identical. Identical values can stand only once. In all, about 340,000 compounds went through this assay and about 6,200 (1.8%) were called active. The inconclusive results got no clear call from the source; some entries with a clear call stand among them for comparison. Calls come from the whole dose curve; as a rule, active = well fitted activation curve with a large enough effect; inconclusive = small, poorly fitted or top-dose-only effect; inactive = no such curve, though single readings can be large or run the other way. Where the call is inconclusive, the potency comes from a doubtful curve fit.

assay: A quantitative high throughput screen for small molecules that induce DNA re-replication in SW480 colon adenocarcinoma cells.; note: nearly all actives have a fitted effect of over 55% in size; for re-replication activation: % of control where 0% means no effect; settings: Hoechst DNA content imaging, 48 h; re-replication activation: at 46.1 µM (top of the series) unless noted
Outline: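 Per well, 250 cells were exposed to pinned compound for 48 hr. Nuclear DNA was visualised with Hoechst (40 min, 37 C) and total object intensity recorded by fluorescence scanning.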
Potency is the fitted concentration of half-maximal effect.

| Structure (SMILES) | Potency | re-replication activation |
| --- | --- | --- |
| O=C(NC1CCN(Cc2ccccc2)CC1)C1CCN(S(=O)(=O)c2cccc3nsnc23)CC1 | inconclusive: 6.31 µM [activator, partial curve, poor fit] | – |
| CCCCC(O)(c1ccc(F)cc1)C(CN1CCOCC1)c1ccc(Cl)cc1 (stereo unspecified) | inconclusive: 29.1 µM [activator, single point] | – |
| Cc1cc(C(=O)OCCN2C(=O)c3ccccc3C2=O)c2ccccc2n1 | inconclusive: 25.9 µM [activator, single point] | – |
| COc1ccc2[nH]c3c(=O)n4c(nc3c2c1)SCCC4 | inconclusive: 32.6 µM [activator, partial curve, poor fit] | – |
| O=C(CSCc1ccccc1)N1CCN(c2ccccc2)CC1 | inconclusive: 3.26 µM [activator, partial curve] | – |
| CC(C)(C)NC(=O)/C(=C\C=C\c1ccccc1)NC(=O)c1ccc([N+](=O)[O-])cc1 | inconclusive: 23.1 µM [activator, single point] | – |
| COc1cc(NC(=O)C/C(C)=N/NC(=O)Cc2ccc(Cl)cc2)c(OC)cc1Cl | inconclusive: 18.4 µM [activator, single point] | – |
| CN(C)c1ccc(C=NNC(=S)Nc2ccc(F)cc2)cc1 | inconclusive: 18.4 µM [activator, single point] | – |
| COc1ccccc1NC(=S)N(C(C)C)C(C)c1ccccn1 (stereo unspecified) | – | inactive: -16% |
| O=C(COC(=O)C1(c2ccc(F)cc2)CCCC1)NCc1ccc2c(c1)OCO2 | – | inactive: -6.23% |
| O=c1c2ccccc2nc(/C=C/c2cccc([N+](=O)[O-])c2)n1CCCO | – | inactive: 11.8% [at 9.22 µM] |
| CCCc1ccc(OCc2nc(-c3ccc(NC(=O)c4ccco4)cc3)no2)cc1 | inconclusive: 0.206 µM [activator, full curve] | – |
| CC(C)(C)c1ccc(S(=O)(=O)NCC2CCCO2)cc1 (stereo unspecified) | inconclusive: 2.06 µM [activator, partial curve, poor fit] | – |
| COC(=O)c1ccc(-c2ccc(/C=N/NC(=O)Cc3nnc(N)s3)o2)cc1 | inconclusive: 20.6 µM [activator, partial curve, poor fit] | – |
| O=C1NC(=O)C2(CCCC2)N1 | – | inactive: -2% |
| COc1ccc(C(=O)NNC2CC(=O)N(Cc3ccccc3)C2=O)cc1OC (stereo unspecified) | inconclusive: 3.66 µM [activator, partial curve, poor fit] | – |
| Cc1cccn2c(=O)c3cc(C(=O)NCCCn4ccnc4)n(C)c3nc12 | inconclusive: 20.6 µM [activator, single point] | – |
| CCOc1ncccc1C(=O)NCCc1ccc(OC)cc1 | inconclusive: 20.6 µM [activator, single point] | – |
| O=S(=O)(c1ccc2nc(-c3ccccc3)[nH]c2c1)N1CCN(c2ccc(Cl)cc2)CC1 | inconclusive: 23.1 µM [activator, single point] and inconclusive: 20.6 µM [activator, partial curve, poor fit] | – |
| CC(C)(C)c1ccc(OCCCNC2CCCC2)cc1 | inconclusive: 16.4 µM [activator, partial curve, poor fit] | – |
| COCc1nnc(NC(=O)c2cccc(NC(=O)c3ccccc3)c2)s1 | – | inactive: 10.5% |
| COc1ccc(C(=O)NCC(=O)Nc2ccc(-c3ccccc3)cc2)cc1 | inconclusive: 16.4 µM [activator, partial curve, poor fit] | – |

| Structure (SMILES) | Potency | re-replication activation |
| --- | --- | --- |
| COCCN1CCN(C(=O)c2ccc3nc(Cc4ccc(OC)c(OC)c4)oc3c2)CC1 | inconclusive: 18.4 µM [activator, single point] | – |
| CC(C)N1CCC(NC(=O)NC2CCCCC2)CC1 | – | inactive: -0.378% |
| C#CCOCCOCCOCCNc1nc(N2CCN(C(=O)[C@H](CCCCN)n3cc(CCC(=O)O)nn3)CC2)nc(N2CCN(C(=O)[C@H](Cc3ccc(O)cc3)n3cc(CCO)nn3)CC2)n1 | inconclusive: 6.51 µM [activator, partial curve, poor fit] | – |
| Cc1ccc(NC(=O)CN2CCC(Cc3ccccc3)CC2)cc1S(=O)(=O)N(C)C | active: 11.6 µM | – |
| OC(CNCc1ccc(Cl)cc1)C(F)(F)F (stereo unspecified) | inconclusive: 2.06 µM [activator, partial curve, poor fit] | – |
| Nc1ncn(C(=S)Nc2ccccc2)n1 | inconclusive: 29.1 µM [activator, single point] | – |
| O=C(Nc1ccc(S(=O)(=O)N2CCCCC2)cc1)c1ccc(CN2CCc3ccccc3C2)cc1 | inconclusive: 23.1 µM [activator, single point] | – |
| CCOC(=O)c1sc2nc(CSc3ccccc3)nc(NCCN(C)C)c2c1C | inconclusive: 29.1 µM [activator, single point] | – |
| O=C(N/N=C/c1ccc([N+](=O)[O-])o1)C1CC1 | inconclusive: 29.1 µM [activator, single point] | – |
| CC(C)OC(=O)c1ccc(NC(=O)C2C3CC4OC(=O)C2C4C3)cc1 (stereo unspecified) | – | inactive: 0.17% |
| c1ccc(-c2nc3ccccn3c2NC2CCCC2)nc1 | – | inactive: 19.5% |
| O=C(O)C(CCc1ccccc1)N1C(=O)c2ccccc2C1=O (stereo unspecified) | – | inactive: 2.73% |
| CC(=O)c1sc(N/N=C/c2cccc([N+](=O)[O-])c2)nc1C | – | inactive: 11.1% |
| O=C(CC1Sc2ncnn2C1=O)Nc1ccccc1 (stereo unspecified) | inconclusive: 29.1 µM [activator, single point] | – |
| CCn1c(CN2CCN(c3cccc(C)c3C)CC2)n[nH]c1=S | inconclusive: 0.0052 µM [activator, full curve, poor fit] | – |
| COc1cc([N+](=O)[O-])cc([N+](=O)[O-])c1NC(=O)N1CCOCC1 | inconclusive: 23.1 µM [activator, single point] | – |
| COc1ccc(O)c(C(=O)c2cc(C#N)c(=O)n(CC3CCCO3)c2)c1 (stereo unspecified) | – | inactive: 2.85% |
| CC1CC(C)CN(C(=O)C2CCN(S(=O)(=O)c3ccc4c(c3)CC(C)N4C(=O)C3CC3)CC2)C1 (stereo unspecified) | – | inactive: -10.6% |
| COc1ccc(C2CC(c3cccc(F)c3)=NN2c2ccc(S(N)(=O)=O)cc2)cc1 (stereo unspecified) | active: 2.31 µM | – |
| Cn1cccc/c1=N\c1cccc[n+]1C | inconclusive: 0.164 µM [activator, full curve, poor fit] | – |
| CN1CCN(C(=O)CCCN2C(=O)/C(=C/c3ccc(Cl)cc3)SC2=S)CC1 | – | inactive: -2.68% |
| O=C(CCSCCC(=O)NN=Cc1ccccc1)NN=Cc1ccccc1 | inconclusive: 0.259 µM [activator, full curve, poor fit] | – |

| Structure (SMILES) | Potency | re-replication activation |
| --- | --- | --- |
| CCN1CCN(CC(=O)c2ccc(OC)cc2)CC1 | – | inactive: -55.1% |
| COc1cc(/C=C2/C(=N)N3C=CSC3=NC2=O)ccc1OCCCOc1c(C)cccc1C | – | inactive: -1.41% |
| CCn1c(C)c(C2=CCN(S(=O)(=O)c3ccccc3)CC2)c2ccccc21 | inconclusive: 29.1 µM [activator, partial curve, poor fit] | – |
| Cc1cccc(-n2ncc3c2CCCC3NC(=O)C2CCOCC2)c1C (stereo unspecified) | – | inactive: -5.1% |
| CN(c1ccccc1)S(=O)(=O)c1ccc(C(=O)Nc2nnc(C3CC3)s2)cc1 | inconclusive: 11.6 µM [activator, partial curve, poor fit] | – |
| Cc1cc(C(=O)N2CCCC(C(=O)c3ccc(Oc4ccccc4)cc3)C2)n[nH]1 (stereo unspecified) | inconclusive: 29.1 µM [activator, single point] | – |
| CCOC(=O)C1=C(C)NC2=C(C(=O)C(C(=O)OCC)C(c3ccc(OC)cc3)C2)C1c1ccccn1 (stereo unspecified) | inconclusive: 18.4 µM [activator, single point] | – |
| CC(=O)N[C@@H](Cc1c[nH]c2ccccc12)C(=O)OCC(=O)Nc1ccc(Cl)c(S(=O)(=O)N(C)C)c1 | inconclusive: 0.316 µM [activator, partial curve, poor fit] | – |
| COc1ccc(CN2CCN(C(=O)Cn3nc(C)n4cccc4c3=O)CC2)c(OC)c1OC | – | inactive: -5.51% |
| O=C1[C@@H]2Cc3c([nH]c4ccccc34)C(c3cccc(Br)c3)N2C(=O)CN1C1CCN(Cc2ccccc2)CC1 (stereo partly specified) | inconclusive: 14.6 µM [activator, single point] | – |
| O=C(Cc1sc(Nc2ccccc2)nc1-c1ccccc1)NCc1ccccc1 | inconclusive: 16.4 µM [activator, partial curve, poor fit] | – |
| Cc1cc(C(=O)COC(=O)c2ccc[nH]c2=O)c(C)n1C | inconclusive: 5.17 µM [activator, full curve, poor fit] | – |
| COc1cc(C2Nc3ccc4ncccc4c3C3=C2C(=O)CCC3)cc(OC)c1O (stereo unspecified) | inconclusive: 23.1 µM [activator, single point] | – |
| COc1cccc(S(=O)(=O)NCc2ccc(C(=O)NCc3ccccn3)cc2)c1 | inconclusive: 29.1 µM [activator, single point] | – |
| CN(CC(=O)NCC(=O)Nc1ccc(F)cc1)C1CCS(=O)(=O)C1 (stereo unspecified) | – | inactive: -9.16% |
| CCOC(=O)C(CC)(CCC(=O)O)c1csc(Nc2ccc(C)cc2)n1 (stereo unspecified) | inconclusive: 0.206 µM [activator, full curve, poor fit] | – |
| COc1ccc(NCc2nn(CC(=O)c3ccc(Br)cc3)c3[n+]2CCCCC3)cc1 | – | inactive: -1.85% |
| CC(C)(C)OC(=O)N1CCC[C@H]1c1nnc(SCc2ccccc2)o1 | – | inactive: -34% |
| CCOc1ccccc1N1CCN(C(=O)C2c3ccccc3Oc3ccccc32)CC1 | active: 16.4 µM | – |
| Clc1ccc(C2[C@H]3CN(CC4CCCCC4)[C@H](c4ccccc4)C34CC2(c2ccccc2)C4)cn1 (stereo partly specified) | inconclusive: 29.1 µM [activator, single point] | – |
| CCC(=NNC(=O)c1ccc2c(c1)nc(C)n2CC)c1cc(F)ccc1O | inconclusive: 5.8 µM [activator, full curve] | – |
| CC(=O)NC(=S)Nc1ccc(-c2nc3ccc(C)cc3s2)cc1 | – | inactive: -4.91% |
